A short description of the assay: IkB Signaling. Conditions: ABC-DLBCL IkBa-CBG/CBR dual luciferase ratio (green luciferase fused to IkBa over red control in OCI-Ly3 lymphoma cells), 4 h. The method in brief: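 Curves were fitted separately to fusion (green), unfused (red) and ratio luminescence, then classed by r2, magnitude and activity. Cells: OCI-Ly3, 4 h compound plus doxycycline at 37C; 10 uM MG-132 defined full response.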
The mark [1] stands for this setting: measured here: control luc red channel unless noted.
[2] abbreviates: measured here: IkB-luc green channel.
Setting [3] is: measured here: control luc red channel.

SMILES strings stand for the structures. Several values for one entry are separate records, joined by “and”; a condition that tells them apart may be missing. Equal values may be shown once. This is one part of the list. The main result of the screen is listed elsewhere. These columns were measured beside it and carry no call. Most of these compounds were active or inconclusive in the main read-out, so they are no random draw. The note in brackets gives the kind of curve behind each potency; many fits are weak.

Take `O=C(Cn1nc(-c2ccc(Cl)cc2)ccc1=O)NCc1ccccc1Cl`: the AC50 (in general, the concentration giving half of the maximal activity seen) under setting [1] is 15.8 µM [falling, partial curve].

Take `COc1cccc(C2C(C(=O)Nc3ccc(C)cc3C)=C(C)Nc3c(C(=O)Nc4cccc(C)c4)cnn32)c1OC` (centres undefined): the half-maximal activity concentration (AC50) under setting [1] is 15.8 µM [falling, partial curve].

For the compound `N=C(N)S/C=C\C(=O)O`, under setting [1], the AC50 was 31.6 µM [rising, partial curve, poor fit].

With `Cc1cccc(OCC(=O)N(Cc2sccc2C)C2CCS(=O)(=O)C2)c1` (centres undefined), the AC50 under setting [1] is 25.1 µM [falling, partial curve].

On to `CN(C)c1ccc(/C=C2/C(=O)Nc3ccccc32)cc1`, for which the AC50 was 12.6 µM [rising, partial curve] under setting [2]; 7.94 µM [falling, partial curve] and 2.51 nM [falling, full curve] under setting [3].

For the compound `O=C(NCc1cccc(Cl)c1)C1CCN(C(=O)c2sccc2-n2cccc2)CC1`, the AC50 under setting [1] was 31.6 µM [falling, partial curve].

Turning to `CCN(CCNC(=O)C1CCN(S(=O)(=O)c2cccc3nsnc23)CC1)c1ccccc1`, the concentration at half-maximal activity (AC50) under setting [1] is 12.6 µM [falling, partial curve].

Consider `COc1cccc(C(=O)Nc2cccc(C(=O)OCc3cc(=O)n4nc(C(C)C)sc4n3)c2)c1`, for which the AC50 under setting [1] is 0.631 µM [falling, full curve].

In the case of `CC(=O)N1CCC(N(C(=O)Nc2c(F)cccc2F)C(C)C)CC1`, the AC50 under setting [1] is 0.00794 µM [falling, full curve, poor fit].

Regarding `Cc1ccc(N(C)C(=O)c2cnc(N3CCOCC3)c3ccccc23)cc1C`, the AC50 under setting [1] was 39.8 µM [falling, single point].

As to `COc1ccc(OC)c(CNC(=O)Cc2ccc(NC(=O)N3CCCCc4ccccc43)cc2)c1`, under setting [1], the AC50 is 12.6 µM [falling, partial curve].

`COCCCNC(=O)c1c(NC(=O)Cc2coc3cc(C)cc(C)c23)sc2c1CCCC2`: under setting [1], the AC50 was 10 µM [falling, partial curve].

For `CCN(CCCNC(=O)c1cc2c(=O)n(CC)c3ccccc3c2s1)c1ccccc1`, the AC50 under setting [1] is 6.31 µM [falling, full curve].

For `c1ccc2c3c([nH]c2c1)-c1[nH]ncc1CC3`, under setting [1], the AC50 is 25.1 µM [falling, single point].

Take `O=C(c1ccc2c(c1)N(Cc1ccccc1F)C(=O)c1ccccc1S2(=O)=O)N1CCCC1`: the AC50 under setting [1] was 31.6 µM [falling, single point].

`O=C(NCC(c1cccnc1)N1CCc2ccccc21)c1cccc(C(F)(F)F)c1` (centres undefined): the AC50 under setting [1] was 15.8 µM [falling, partial curve].

For `CCCNC(=O)CSc1nc2nc(C)c(Cc3ccccc3Cl)c(C)n2n1`, the half-maximal activity concentration (AC50) under setting [1] is 1.58 µM [falling, full curve].

For `O=C(NCc1ccco1)c1cnn2c(C(F)(F)F)cc(-c3ccccc3)nc12`, the half-maximal activity concentration (AC50) under setting [1] was 12.6 µM [falling, partial curve].

Take `Brc1ccc(CSc2nnc(Cc3c[nH]c4ccccc34)o2)cc1`: under setting [1], the AC50 is 10 µM [falling, partial curve].

As for `COc1ccc(CCCc2nnc(SCC(=O)Nc3ccc(C)cc3C)o2)cc1`, the AC50 under setting [1] was 12.6 µM [falling, partial curve].

For `COc1ccc(-c2cc(C(=O)OC(C)C(=O)c3ccccc3)c3cccc(Cl)c3n2)cc1` (centres undefined), the AC50 under setting [1] is 20 µM [falling, partial curve].

Regarding `c1ccc(Nc2c(-c3c[nH]c4ccccc34)nc3ccccn23)cc1`, under setting [1], the AC50 was 0.0126 µM [falling, full curve].

As for `CCOC(=O)CC(=O)CSc1ncnc2c1cnn2-c1ccccc1`, the AC50 under setting [1] was 15.8 µM [falling, partial curve].

On to `CC(C)Nc1ccc(-c2nc(-c3ccco3)no2)cc1[N+](=O)[O-]`, for which the AC50 under setting [1] is 0.00501 µM [rising, full curve, poor fit].

On to `Cc1ccc2nc(N3CCC(C(=O)N4CCN(c5cccc(Cl)c5)CC4)CC3)[nH]c2c1`, for which, under setting [1], the AC50 was 39.8 µM [falling, single point].

Take `COc1cc(C(=O)NCC(c2cccs2)S(=O)(=O)c2ccc(F)cc2)cc(OC)c1OC` (centres undefined): the AC50 reads like this: under setting [2], 3.16 µM [rising, partial curve]; under setting [3], 3.16 µM [rising, partial curve].

On to `CCOC(=O)c1c(C)[nH]c(CCC(=O)Nc2ccc(C)c(F)c2)c1C`, for which the AC50 under setting [1] is 20 µM [falling, partial curve].

As for `Cc1ccccc1-c1noc(-c2ccc(O)cc2)n1`, the AC50 under setting [1] was 20 µM [falling, single point].

Regarding `Cc1cccc(OCC(=O)Nc2ccc(Cl)c(-c3nc4ncccc4o3)c2)c1C`, under setting [1], the AC50 is 6.31 µM [falling, partial curve].

Regarding `Cc1ccc(-n2ncc(C(=O)NCc3cccs3)c2C2CCN(C(=O)OC(C)(C)C)CC2)c(C)c1`, under setting [1], the half-maximal activity concentration (AC50) was 31.6 µM [falling, single point].

On to `O=C(NCc1ccccc1Cl)c1ccc(CSCc2ccccc2Cl)o1`, for which, under setting [1], the concentration at half-maximal activity (AC50) is 25.1 µM [falling, single point].

In the case of `COc1ccc(OC)c(NC(=O)CSc2nnc3ccc4ccccc4n23)c1`, the AC50 under setting [1] is 12.6 µM [falling, single point].

Consider `Cc1cccc2cc(CN(Cc3ccco3)S(=O)(=O)c3ccc4c(c3)OCCO4)c(=O)[nH]c12`, for which, under setting [1], the half-maximal activity concentration (AC50) is 15.8 µM [falling, partial curve].

Take `Cc1ccc(-c2nnc(Nc3cccc(O)c3)c3ccccc23)cc1S(=O)(=O)N1CCOCC1`: the AC50 under setting [1] is 15.8 µM [falling, partial curve].

Turning to `CCc1ccc(NC(=O)CCn2nc(-c3ccccc3OC)c3c(C)cc(C)nc32)cc1`, the AC50 under setting [1] was 12.6 µM [falling, partial curve].

With `COc1ccc(-c2cn3c(C)c(C(=O)Nc4cc(NC(C)=O)ccc4OC)sc3n2)cc1`, under setting [1], the AC50 is 1.58 µM [falling, full curve].

In the case of `CCC(c1nnnn1Cc1ccco1)N(Cc1ccccc1OC)Cc1cc2cc(C)ccc2[nH]c1=O` (centres undefined), the AC50 under setting [1] is 15.8 µM [falling, partial curve].

Consider `COC(=O)c1scc(-c2ccc(C)cc2)c1S(=O)(=O)N1CCN(c2cccc(OC)c2)CC1`, for which the AC50 under setting [1] is 3.98 µM [falling, full curve, poor fit].

On to `Fc1ccc(Nc2c3c(nc4ccccc24)CCC3)cc1`, for which the AC50 under setting [1] is 25.1 µM [falling, single point].

Consider `Cc1ccc(Sc2c(C)nn(C(C)(C)C)c2OC(=O)C(C)(C)C)cc1`, for which the AC50 under setting [1] was 20 µM [falling, partial curve].

As for `O=C(NCc1ccco1)c1ccc2c(c1)N(Cc1ccc(Cl)cc1)C(=O)c1ccccc1S2=O` (centres undefined), the AC50 under setting [1] was 3.98 µM [falling, partial curve].

`CCN(C(=O)C1CCCN(S(=O)(=O)c2c(C)noc2/C=C/N(C)C)C1)c1cccc(C)c1` (centres undefined): under setting [1], the AC50 is 31.6 µM [falling, single point].

As for `CCN(c1ccccc1)c1nnc(NC(=O)Nc2ccccc2F)s1`, the AC50 under setting [1] was 15.8 µM [falling, partial curve].

For `O=C1CC(c2ccc3c(c2)OCO3)Sc2nc3ccccc3n21` (centres undefined), under setting [1], the AC50 is 0.2 µM [falling, full curve].

Regarding `Cc1nc(Oc2ccc(F)cc2Cl)c2oc3ccccc3c2n1`, under setting [1], the half-maximal activity concentration (AC50) is 39.8 µM [falling, single point].

Consider `O=C(CN1C(=O)COc2ccccc21)Nc1ccc(F)cc1`, for which the concentration at half-maximal activity (AC50) under setting [1] is 0.02 µM [falling, full curve].

As for `CCC(=O)N1CCc2cc(Br)cc(S(=O)(=O)CCC(=O)NCc3ccc(Cl)cc3)c21`, the AC50 under setting [1] is 20 µM [falling, partial curve].

As to `CC1(C)CC(NC(=O)CC2CCCCC2)CC(C)(C)N1`, the AC50 under setting [1] is 7.94 µM [falling, partial curve].

Take `CCOc1ccccc1NC(=O)CN(C)S(=O)(=O)c1ccc2nc(C)sc2c1`: the AC50 under setting [1] is 39.8 µM [falling, single point].

With `CSC1=NC2(CCN(C(=O)NC3CCCCC3)CC2)N=C1c1ccc(C)c(C)c1`, the half-maximal activity concentration (AC50) under setting [1] is 15.8 µM [falling, partial curve].

`Cc1ccc(C)c(NC(=O)CN2C(=O)C(C)(C)c3ccccc32)c1`: the AC50 under setting [1] is 7.94 µM [rising, partial curve, poor fit].

Regarding `COc1ccc(Br)cc1CNC(=O)c1cc2n(n1)CCCN(Cc1ccc(C)cc1)C2=O`, the AC50 under setting [1] is 12.6 µM [falling, partial curve].

`CCOC(=O)CCc1c(C)nc2cc(-c3ccccc3OC)[nH]n2c1=O`: the half-maximal activity concentration (AC50) under setting [1] was 3.16 µM [falling, full curve].

For the compound `O=C(Nc1sc2c(c1C(=O)NCc1ccco1)CCCC2)c1cc(=O)c2ccccc2o1`, the concentration at half-maximal activity (AC50) runs as follows: under setting [2], 39.8 µM [rising, single point]; under setting [3], 5.01 µM [falling, partial curve].

Regarding `COc1cc(NC(=O)Cn2c(=O)n(Cc3ccco3)c(=O)c3sc4ccccc4c32)cc(OC)c1`, the AC50 under setting [1] was 31.6 µM [falling, partial curve].

Turning to `COCCCNc1oc(/C=C/c2cc(OC)c(OC)c(OC)c2)nc1C#N`, the AC50 under setting [1] is 25.1 µM [falling, single point].

In the case of `Cc1ccc(N2CCN(C(=O)c3c(C)oc4ncn(CC(C)C)c(=O)c34)CC2)c(C)c1`, the AC50 under setting [1] is 25.1 µM [falling, partial curve, poor fit].

Take `Cc1ccc(C)c(N2CCN(C(=O)C3CCN(c4nc5ccc(C)cc5[nH]4)CC3)CC2)c1`: the AC50 under setting [1] is 39.8 µM [falling, single point].

In the case of `CCC(C)NC(=O)c1cc(-c2cccc(OC)c2)on1` (centres undefined), the AC50 under setting [1] is 3.16 µM [falling, full curve].

For the compound `Cc1cc(-c2ccc(C)c(S(=O)(=O)N3CCN(c4cccc(C(F)(F)F)c4)CC3)c2)on1`, under setting [1], the half-maximal activity concentration (AC50) is 2.51 µM [falling, full curve, poor fit].

As to `Cc1ccc(Oc2c(C(F)(F)F)oc3c(CN4CCC(C)CC4)c(O)ccc3c2=O)cc1`, the AC50 under setting [1] was 15.8 µM [falling, partial curve].

These data come from PubChem BioAssay AID445 (National Center for Advancing Translational Sciences (NCATS), 2006).
